Measurements published in publication PMC6443913.
Read-outs that look alike come from different tables or passages of the source. Results are given in words; binding and its absence hold for the method and conditions named. Binding seen in cells or lysates may run through a third protein. Some binding calls cover weakened binding; strength is not graded here. Each block holds one molecule with its values, some of them ahead of it.

Amino acid sequences for entries named in this document (tags omitted).
UniProt P03372: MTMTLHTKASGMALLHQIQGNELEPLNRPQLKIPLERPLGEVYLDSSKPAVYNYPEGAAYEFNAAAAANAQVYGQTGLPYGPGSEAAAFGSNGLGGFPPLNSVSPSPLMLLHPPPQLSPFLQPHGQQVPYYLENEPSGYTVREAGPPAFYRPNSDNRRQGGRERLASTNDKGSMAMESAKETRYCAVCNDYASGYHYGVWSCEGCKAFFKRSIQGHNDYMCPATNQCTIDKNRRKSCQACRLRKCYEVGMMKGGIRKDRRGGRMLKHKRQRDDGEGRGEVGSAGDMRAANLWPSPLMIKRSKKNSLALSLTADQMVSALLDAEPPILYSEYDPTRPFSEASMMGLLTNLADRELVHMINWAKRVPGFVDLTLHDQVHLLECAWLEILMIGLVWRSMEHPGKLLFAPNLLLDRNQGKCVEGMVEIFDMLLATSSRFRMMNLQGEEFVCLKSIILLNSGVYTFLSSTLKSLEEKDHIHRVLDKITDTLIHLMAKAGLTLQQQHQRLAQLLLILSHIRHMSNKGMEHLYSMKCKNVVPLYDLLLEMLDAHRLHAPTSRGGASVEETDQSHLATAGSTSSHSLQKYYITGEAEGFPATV
UniProt Q13562: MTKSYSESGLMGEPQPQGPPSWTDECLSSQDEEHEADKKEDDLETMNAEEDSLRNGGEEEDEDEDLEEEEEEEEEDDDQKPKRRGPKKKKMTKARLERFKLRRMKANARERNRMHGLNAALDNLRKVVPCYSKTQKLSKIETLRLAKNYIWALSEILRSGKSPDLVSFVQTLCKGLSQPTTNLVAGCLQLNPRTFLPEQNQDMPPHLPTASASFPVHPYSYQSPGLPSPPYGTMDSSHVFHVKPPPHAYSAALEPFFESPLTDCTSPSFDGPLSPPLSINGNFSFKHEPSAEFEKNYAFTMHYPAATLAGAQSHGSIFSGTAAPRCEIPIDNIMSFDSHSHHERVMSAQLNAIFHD

How the values were obtained:
Experiment in all cases: pull-down; matrix-bound GST fusion protein incubated with 35S-labelled in vitro translated protein, with or without E2; bound proteins on 10% SDS-PAGE, visualised with a BAS 1500; only the target purified
[1] = target: GST-ERα (fusion protein between glutathione S-transferase and ERα) (human) (UniProt P03372)
GST-BETA2 (human) [2] = target: GST-BETA2 (human) (UniProt Q13562)
GST-BETA2 (human) [3] = target: GST-BETA2 (human) (UniProt Q13562); remark: listed apart in the source

- binding [1]: binds
Molecule: 35S-methionine-labeled, in vitro-translated BETA2 (from UniProt Q13562 1-356)

- binding (GST-BETA2 (human) [2]): binds
Molecule: 35S-methionine-labeled ERα (from UniProt P03372 1-595) (receptor)

- binding (GST-BETA2 (human) [3]): binds
B1: 35S-labeled E47 (protein, UniProt P15923-2 1-651)
chain: MNQPQRMAPVGTDKELSDLLDFSMMFPLPVTNGKGRPASLAGAQFGGSGLEDRPSSGSWGSGDQSSSSFDPSRTFSEGTHFTESHSSLSSSTFLGPGLGGKSGERGAYASFGRDAGVGGLTQAGFLSGELALNSPGPLSPSGMKGTSQYYPSYSGSSRRRAADGSLDTQPKKVRKVPPGLPSSVYPPSSGEDYGRDATAYPSAKTPSSTYPAPFYVADGSLHPSAELWSPPGQAGFGPMLGGGSSPLPLPPGSGPVGSSGSSSTFGGLHQHERMGYQLHGAEVNGGLPSASSFSSAPGATYGGVSSHTPPVSGADSLLGSRGTTAGSSGDALGKALASIYSPDHSSNNFSSSPSTPVGSPQGLAGTSQWPRAGAPGALSPSYDGGLHGLQSKIEDHLDEAIHVLRSHAVGTAGDMHTLLPGHGALASGFTGPMSLGGRHAGLVGGSHPEDGLAGSTSLMHNHAALPSQPGTLPDLSRPPDSYSGLGRAGATAAASEIKREEKEDEENTSAADHSEEEKKELKAPRARTSSTDEVLSLEEKDLRDRERRMANNARERVRVRDINEAFRELGRMCQMHLKSDKAQTKLLILQQAVQVILGLEQQVRERNLNPKAACLKRREEEKVSGVVGDPQMVLSAPHPGLSEAHNPAGHM
modifications: 35S labelled
